Laboratory results as given in article PMC9105235.
Results are given in words; binding and its absence hold for the method and conditions named. In cells and extracts the contact can be indirect. These calls come from enrichment with a bait or labelling near it, and not all partners need be listed.

How the values were obtained:
PrC-CUL3-∆9 (human) = PrC-CUL3-∆9 (human) (UniProt Q13618); test: affinity purification with mass spectrometry; PrC-CUL3-WT or PrC-CUL3-∆9 precipitated with HPC4-sepharose overnight at 4 °C from lysates of tetracycline-induced Flp-In T-REx 293 cells (50 mM HEPES pH 7.5, 150 mM NaCl, 0.5% Nonidet P-40, 2 mM CaCl2); label-free LC-MS/MS, two independent experiments, empty vector as control
PrC-CUL3-WT (human) = PrC-CUL3-WT (human) (UniProt Q13618); test: as above

B1: ACTIN-BINDING PROTEIN IPP (protein, UniProt Q9Y573 1-584)
chain: MANEDCPKAADSPFSSDKHAQLILAQINKMRNGQHFCDVQLQVGQESFKAHRLVLAASSPYFAALFTGGMKESSKDVVPILGIEAGIFQILLDFIYTGIVNIGVNNVQELIIAADMLQLTEVVHLCCEFLKGQIDPLNCIGIFQFSEQIACHDLLEFSENYIHVHFLEVHSGEEFLALTKDQLIKILRSEELSIEDEYQVFLAAMQWILKDLGKRRKHVVEVLDPIRFPLLPPQRLLKYIEGVSDFNLRVALQTLLKEYCEVCKSPKENKFCSFLQTSKVRPRKKARKYLYAVGGYTRLQGGRWSDSRALSCVERFDTFSQYWTTVSSLHQARSGLGVTVLGGMVYAIGGEKDSMIFDCTECYDPVTKQWTTVASMNHPRCGLGVCVCYGAIYALGGWVGAEIGNTIERFDPDENKWEVVGNMAVSRYYFGCCEMQGLIYVIGGISNEGIELRSFEVYDPLSKRWSPLPPMGTRRAYLGVAALNDCIYSVGGWNETQDALHTVEKYSFEEEKWVEVASMKVPRAGMCVVAVNGLLYVSGGRSSSHDFLAPGTLDSVEVYNPHSDTWTEIGNMITSRCEGGVAVL
binding (PrC-CUL3-∆9 (human)): binds | binding (PrC-CUL3-WT (human)): binds
